Results from patent US20210023171A1 (published 2021).
These are yes or no findings as the source states them, for the method shown. Some binding calls cover weakened binding; strength is not graded here.

Protein sequences, listed by entry. Tags and fused reporters are not part of them. Lines headed by an entry give the natural chain unless they say otherwise; changes in a name come on top.
UniProt P06756: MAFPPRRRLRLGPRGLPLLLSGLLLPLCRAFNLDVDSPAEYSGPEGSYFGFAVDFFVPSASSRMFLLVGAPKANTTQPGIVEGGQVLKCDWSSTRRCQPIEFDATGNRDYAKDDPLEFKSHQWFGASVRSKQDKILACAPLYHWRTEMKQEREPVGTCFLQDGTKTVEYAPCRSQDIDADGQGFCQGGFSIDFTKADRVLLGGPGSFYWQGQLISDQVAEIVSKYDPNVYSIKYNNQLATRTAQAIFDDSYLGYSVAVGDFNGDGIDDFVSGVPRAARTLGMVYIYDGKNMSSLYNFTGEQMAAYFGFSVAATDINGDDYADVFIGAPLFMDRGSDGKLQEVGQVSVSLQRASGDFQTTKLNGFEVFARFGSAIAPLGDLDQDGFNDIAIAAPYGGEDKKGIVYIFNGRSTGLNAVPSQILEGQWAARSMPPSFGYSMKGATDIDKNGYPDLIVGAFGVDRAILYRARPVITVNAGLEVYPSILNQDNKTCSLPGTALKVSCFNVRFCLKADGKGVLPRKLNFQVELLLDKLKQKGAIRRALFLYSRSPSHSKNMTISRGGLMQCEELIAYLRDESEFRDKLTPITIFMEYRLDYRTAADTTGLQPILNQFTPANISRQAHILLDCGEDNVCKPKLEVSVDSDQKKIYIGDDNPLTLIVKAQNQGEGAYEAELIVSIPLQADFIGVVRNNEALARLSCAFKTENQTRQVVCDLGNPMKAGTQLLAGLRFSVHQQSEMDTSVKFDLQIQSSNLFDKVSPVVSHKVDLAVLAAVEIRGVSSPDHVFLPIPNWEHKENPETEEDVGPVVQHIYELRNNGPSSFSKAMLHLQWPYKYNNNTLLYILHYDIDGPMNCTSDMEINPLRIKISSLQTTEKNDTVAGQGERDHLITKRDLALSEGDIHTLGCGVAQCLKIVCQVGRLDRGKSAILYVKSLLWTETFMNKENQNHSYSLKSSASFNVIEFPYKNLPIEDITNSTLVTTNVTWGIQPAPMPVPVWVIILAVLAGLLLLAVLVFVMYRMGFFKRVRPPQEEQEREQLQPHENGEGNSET
UniProt P08648: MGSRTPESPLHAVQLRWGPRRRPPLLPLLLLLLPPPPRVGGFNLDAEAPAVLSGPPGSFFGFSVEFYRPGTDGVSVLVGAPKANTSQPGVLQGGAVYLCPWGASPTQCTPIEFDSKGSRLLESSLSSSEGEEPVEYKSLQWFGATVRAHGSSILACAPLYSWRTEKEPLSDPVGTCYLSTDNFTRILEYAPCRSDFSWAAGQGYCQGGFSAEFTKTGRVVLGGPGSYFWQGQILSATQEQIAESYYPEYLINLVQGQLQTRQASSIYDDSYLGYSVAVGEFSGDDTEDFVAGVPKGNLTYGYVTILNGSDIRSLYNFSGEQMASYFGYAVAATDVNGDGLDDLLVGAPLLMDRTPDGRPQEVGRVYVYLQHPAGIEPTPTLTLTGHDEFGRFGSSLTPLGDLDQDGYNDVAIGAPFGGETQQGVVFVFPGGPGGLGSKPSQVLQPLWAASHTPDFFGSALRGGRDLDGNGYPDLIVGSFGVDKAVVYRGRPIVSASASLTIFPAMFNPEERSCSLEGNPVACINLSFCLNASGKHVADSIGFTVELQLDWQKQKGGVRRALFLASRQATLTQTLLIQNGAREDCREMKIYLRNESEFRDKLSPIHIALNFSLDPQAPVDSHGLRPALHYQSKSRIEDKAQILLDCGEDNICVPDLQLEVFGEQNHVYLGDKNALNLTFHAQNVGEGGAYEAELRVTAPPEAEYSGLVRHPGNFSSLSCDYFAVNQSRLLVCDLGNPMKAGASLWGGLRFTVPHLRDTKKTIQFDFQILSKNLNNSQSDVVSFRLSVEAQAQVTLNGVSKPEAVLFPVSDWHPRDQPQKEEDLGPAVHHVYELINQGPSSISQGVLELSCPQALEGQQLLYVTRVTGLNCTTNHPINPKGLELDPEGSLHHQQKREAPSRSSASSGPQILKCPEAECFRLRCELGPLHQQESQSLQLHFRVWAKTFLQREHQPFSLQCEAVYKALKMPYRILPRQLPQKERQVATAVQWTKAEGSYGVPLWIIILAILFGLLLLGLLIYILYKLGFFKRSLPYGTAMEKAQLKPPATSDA

Key:
[1] = molecular target: αvβ5 integrin (soluble / detergent-solubilized) (UniProt P06756); assay: competition with ^125I-echistatin on plate-coated integrin
[2] = molecular target: α5β1 integrin (detergent-solubilized) (UniProt P08648); assay: as above

Binder	binding [1]	binding [2]
GCPQGRGDWAPTSCSQDSDCRAGCVCGPNGFCG (also called knottin peptide 2.5D; RGD-miniprotein 2.5D) [Miniprotein 2.5D (synthetic, soluble)]	binds	
GCPRPRGDNPPLTCSQDSDCLAGCVCGPNGFCG (also called knottin peptide 2.5F; RGD-miniprotein 2.5F) [Miniprotein 2.5F (synthetic, soluble)]	binds	binds
GCVTGRGDSPASSCSQDSDCLAGCVCGPNGFCG (also called FN-RGD2; RGD-EETI #3) [Loop-grafted FN-RGD (synthetic, soluble)]	binds	
GCTIGRGDWAPSECSQDSDCLAGCVCGPNGFCG (also called RGD-miniprotein 1.5B) [Miniprotein 1.5B (synthetic, soluble)]	binds	
